Test results reported in the supplement of paper PMC5355238.
Where a name gives a salt, the structure may show the parent alone. This is one part of the list. Most values lie at the level of the controls, where differences are scatter.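 Using flow cytometry, the assay measures the median γH2AX antibody signal in S-phase Reh cells (a human leukemia line). Each score is the number of standard deviations from the median difference of paired plate sets. Candidate hits scored above 2.5; compounds scoring below -2 lowered MK1775-induced damage.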

Tested on: Reh
Test: Z' of S-phase gammaH2AX difference (drug + MK1775 minus drug alone) (Z-score); higher = stronger synergistic S-phase DNA damage with MK1775
Settings: MK1775 concentration 400 nM; first compound 10 µM; 4 h

Q: With `Nc1nc2[nH]c(=O)cnc2c(=O)[nH]1` [Isoxanthopterin] + C=CCn1c(=O)c2cnc(Nc3ccc(N4CCN(C)CC4)cc3)nc2n1-c1cccc(C(C)(C)O)n1 [MK1775] as the compound, how does the “Z' of S-phase gammaH2AX difference (Z-score)” value read?
A: inactive: -0.197

Q: How did the “Z' of S-phase gammaH2AX difference (Z-score)” value turn out when `CC(C)(C)[C@]1(O)CCN2C[C@H]3c4ccccc4CCc4cccc(c43)[C@@H]2C1` [(+)-Butaclamol hydrochloride] + C=CCn1c(=O)c2cnc(Nc3ccc(N4CCN(C)CC4)cc3)nc2n1-c1cccc(C(C)(C)O)n1 [MK1775] was run?
A: inactive: 0.611

Q: How did the “Z' of S-phase gammaH2AX difference (Z-score)” value turn out when `Nc1ncnc2c1nc(Sc1ccc(Cl)cc1)n2C1OC2COP(=O)(O)O[C@@H]2[C@@H]1O` (stereo partly specified) [8-(4-Chlorophenylthio)-cAMP sodium] + C=CCn1c(=O)c2cnc(Nc3ccc(N4CCN(C)CC4)cc3)nc2n1-c1cccc(C(C)(C)O)n1 [MK1775] was run?
A: inactive: 0.585

Q: With `O=C(O)C1=CCCNC1` [Guvacine hydrochloride] + C=CCn1c(=O)c2cnc(Nc3ccc(N4CCN(C)CC4)cc3)nc2n1-c1cccc(C(C)(C)O)n1 [MK1775] as the compound, how does the “Z' of S-phase gammaH2AX difference (Z-score)” value read?
A: inactive: 1.66

Q: `NCCNC(=O)c1ncsc1-c1cccc(F)c1` [Ro 41-1049 hydrochloride] + C=CCn1c(=O)c2cnc(Nc3ccc(N4CCN(C)CC4)cc3)nc2n1-c1cccc(C(C)(C)O)n1 [MK1775] was tested. Which “Z' of S-phase gammaH2AX difference (Z-score)” value did it give?
A: inactive: -2.33

Q: Which “Z' of S-phase gammaH2AX difference (Z-score)” value does the source give for `COc1ccccc1N1CCN(CCCCNS(=O)(=O)c2cccc3c(N(C)C)cccc23)CC1` [Cortexolone maleate] + C=CCn1c(=O)c2cnc(Nc3ccc(N4CCN(C)CC4)cc3)nc2n1-c1cccc(C(C)(C)O)n1 [MK1775] here?
A: inactive: 0.0317

Q: Which “Z' of S-phase gammaH2AX difference (Z-score)” value does the source give for `C[C@@H]1C[C@H]2[C@@H]3CCC4=CC(=O)C=C[C@]4(C)[C@@]3(F)[C@@H](O)C[C@]2(C)[C@@]1(O)C(=O)CO` [Dexamethasone] + C=CCn1c(=O)c2cnc(Nc3ccc(N4CCN(C)CC4)cc3)nc2n1-c1cccc(C(C)(C)O)n1 [MK1775] here?
A: inactive: 0.277

Q: With `Cc1cnc(NC(=O)C2=C(O)c3ccccc3S(=O)(=O)N2C)s1` [Meloxicam sodium] + C=CCn1c(=O)c2cnc(Nc3ccc(N4CCN(C)CC4)cc3)nc2n1-c1cccc(C(C)(C)O)n1 [MK1775] as the compound, how does the “Z' of S-phase gammaH2AX difference (Z-score)” value read?
A: inactive: 0.354

Q: With `O=C(O)CCCc1ccccc1` [4-Phenylbutyrate] + C=CCn1c(=O)c2cnc(Nc3ccc(N4CCN(C)CC4)cc3)nc2n1-c1cccc(C(C)(C)O)n1 [MK1775] as the compound, how does the “Z' of S-phase gammaH2AX difference (Z-score)” value read?
A: inactive: 0.492

Q: For `N=C(N)SCCc1c[nH]cn1` [Imetit dihydrobromide] + C=CCn1c(=O)c2cnc(Nc3ccc(N4CCN(C)CC4)cc3)nc2n1-c1cccc(C(C)(C)O)n1 [MK1775], which “Z' of S-phase gammaH2AX difference (Z-score)” value is on record?
A: inactive: 0.0364

Q: With `CN(C)c1ccc(/C=C2/C(=O)Nc3ccccc32)cc1` + C=CCn1c(=O)c2cnc(Nc3ccc(N4CCN(C)CC4)cc3)nc2n1-c1cccc(C(C)(C)O)n1 [MK1775] as the compound, how does the “Z' of S-phase gammaH2AX difference (Z-score)” value read?
A: inactive: -0.319

Q: `COc1cc(NS(C)(=O)=O)ccc1Nc1c2ccccc2nc2ccccc12` [Amsacrine hydrochloride] + C=CCn1c(=O)c2cnc(Nc3ccc(N4CCN(C)CC4)cc3)nc2n1-c1cccc(C(C)(C)O)n1 [MK1775] was tested. Which “Z' of S-phase gammaH2AX difference (Z-score)” value did it give?
A: active: 3.16

Q: How did the “Z' of S-phase gammaH2AX difference (Z-score)” value turn out when `FC(F)c1nc2ccccc2n1-c1nc(N2CCOCC2)nc(N2CCOCC2)n1` + C=CCn1c(=O)c2cnc(Nc3ccc(N4CCN(C)CC4)cc3)nc2n1-c1cccc(C(C)(C)O)n1 [MK1775] was run?
A: inactive: -0.0495

Q: Which “Z' of S-phase gammaH2AX difference (Z-score)” value does the source give for `CCCn1c(=O)c2c(ncn2C)n(CCC)c1=O` [1,3-Dipropyl-7-methylxanthine] + C=CCn1c(=O)c2cnc(Nc3ccc(N4CCN(C)CC4)cc3)nc2n1-c1cccc(C(C)(C)O)n1 [MK1775] here?
A: inactive: 1.29

Q: Which “Z' of S-phase gammaH2AX difference (Z-score)” value does the source give for `C[C@H]1C[C@H]2[C@@H]3CCC4=CC(=O)C=C[C@]4(C)[C@@]3(F)[C@@H](O)C[C@]2(C)[C@@]1(O)C(=O)CO` [Betamethasone] + C=CCn1c(=O)c2cnc(Nc3ccc(N4CCN(C)CC4)cc3)nc2n1-c1cccc(C(C)(C)O)n1 [MK1775] here?
A: inactive: 0.0768

Q: For `Cc1ccc(Cl)c(Nc2ccccc2C(=O)O)c1Cl` [Meclofenamic acid sodium] + C=CCn1c(=O)c2cnc(Nc3ccc(N4CCN(C)CC4)cc3)nc2n1-c1cccc(C(C)(C)O)n1 [MK1775], which “Z' of S-phase gammaH2AX difference (Z-score)” value is on record?
A: inactive: 2.11

Q: `COC(=O)C1=C(C)NC(C)=C(C(=O)OCCCN2CCC(c3ccccc3)(c3ccccc3)CC2)[C@H]1c1cccc([N+](=O)[O-])c1` [S-(+)-Niguldipine hydrochloride] + C=CCn1c(=O)c2cnc(Nc3ccc(N4CCN(C)CC4)cc3)nc2n1-c1cccc(C(C)(C)O)n1 [MK1775] was tested. Which “Z' of S-phase gammaH2AX difference (Z-score)” value did it give?
A: inactive: -0.639

Q: Which “Z' of S-phase gammaH2AX difference (Z-score)” value does the source give for `CN(C)CCOc1ccc(/C(=C(/CCCl)c2ccccc2)c2ccccc2)cc1` [Toremifene Citrate (Fareston, Acapodene)] + C=CCn1c(=O)c2cnc(Nc3ccc(N4CCN(C)CC4)cc3)nc2n1-c1cccc(C(C)(C)O)n1 [MK1775] here?
A: inactive: 0.107

Q: With `CC1=Nc2ccc(Cl)cc2S(=O)(=O)N1` [Diazoxide] + C=CCn1c(=O)c2cnc(Nc3ccc(N4CCN(C)CC4)cc3)nc2n1-c1cccc(C(C)(C)O)n1 [MK1775] as the compound, how does the “Z' of S-phase gammaH2AX difference (Z-score)” value read?
A: inactive: -0.342

Q: `CCn1nc(C(=O)O)c(=O)c2cc3c(cc21)OCO3` [Cinoxacin] + C=CCn1c(=O)c2cnc(Nc3ccc(N4CCN(C)CC4)cc3)nc2n1-c1cccc(C(C)(C)O)n1 [MK1775] was tested. Which “Z' of S-phase gammaH2AX difference (Z-score)” value did it give?
A: inactive: 0.11

Q: Which “Z' of S-phase gammaH2AX difference (Z-score)” value does the source give for `CN1CCN(c2nc3cc(C(F)(F)F)ccc3n3cccc23)CC1` + C=CCn1c(=O)c2cnc(Nc3ccc(N4CCN(C)CC4)cc3)nc2n1-c1cccc(C(C)(C)O)n1 [MK1775] here?
A: inactive: 0.842

Q: Which “Z' of S-phase gammaH2AX difference (Z-score)” value does the source give for `COc1cc2nccc(Oc3ccc(NC(=O)C4(C(=O)Nc5ccc(F)cc5)CC4)cc3)c2cc1OC` [XL-184 free base (Cabozantinib)] + C=CCn1c(=O)c2cnc(Nc3ccc(N4CCN(C)CC4)cc3)nc2n1-c1cccc(C(C)(C)O)n1 [MK1775] here?
A: inactive: 0.178

Q: How did the “Z' of S-phase gammaH2AX difference (Z-score)” value turn out when `CNC(=O)c1cc(COc2nnc(Nc3ccc(Cl)cc3)c3ccoc23)ccn1` [Telatinib (BAY 57-9352)] + C=CCn1c(=O)c2cnc(Nc3ccc(N4CCN(C)CC4)cc3)nc2n1-c1cccc(C(C)(C)O)n1 [MK1775] was run?
A: inactive: -0.199

Q: Which “Z' of S-phase gammaH2AX difference (Z-score)” value does the source give for `OC[C@H]1O[C@@H](c2nc3cc(Cl)c(Cl)cc3[nH]2)[C@H](O)[C@@H]1O` [D-ribofuranosylbenzimidazole] + C=CCn1c(=O)c2cnc(Nc3ccc(N4CCN(C)CC4)cc3)nc2n1-c1cccc(C(C)(C)O)n1 [MK1775] here?
A: inactive: -0.0996

Q: How did the “Z' of S-phase gammaH2AX difference (Z-score)” value turn out when `CC(COc1ccccc1)N(CCCl)Cc1ccccc1` (stereo unspecified) [Phenoxybenzamine hydrochloride] + C=CCn1c(=O)c2cnc(Nc3ccc(N4CCN(C)CC4)cc3)nc2n1-c1cccc(C(C)(C)O)n1 [MK1775] was run?
A: inactive: -0.177

Q: For `Nc1ncn([C@@H]2O[C@H](CO)[C@@H](O)[C@H]2O)c(=O)n1` [Azacitidine (Vidaza)] + C=CCn1c(=O)c2cnc(Nc3ccc(N4CCN(C)CC4)cc3)nc2n1-c1cccc(C(C)(C)O)n1 [MK1775], which “Z' of S-phase gammaH2AX difference (Z-score)” value is on record?
A: inactive: -0.363

Q: How did the “Z' of S-phase gammaH2AX difference (Z-score)” value turn out when `Nc1ncn([C@@H]2O[C@H](CO)[C@@H](O)[C@H]2O)c(=O)n1` [5-azacytidine] + C=CCn1c(=O)c2cnc(Nc3ccc(N4CCN(C)CC4)cc3)nc2n1-c1cccc(C(C)(C)O)n1 [MK1775] was run?
A: inactive: -0.254

Q: `CCCNC(C)C(=O)Nc1ccccc1C` (stereo unspecified) [Prilocaine hydrochloride] + C=CCn1c(=O)c2cnc(Nc3ccc(N4CCN(C)CC4)cc3)nc2n1-c1cccc(C(C)(C)O)n1 [MK1775] was tested. Which “Z' of S-phase gammaH2AX difference (Z-score)” value did it give?
A: inactive: -0.359

Q: For `CNc1ncnc2c1ncn2[C@H]1C[C@H](OP(=O)(O)O)[C@@H](COP(=O)(O)O)O1` + C=CCn1c(=O)c2cnc(Nc3ccc(N4CCN(C)CC4)cc3)nc2n1-c1cccc(C(C)(C)O)n1 [MK1775], which “Z' of S-phase gammaH2AX difference (Z-score)” value is on record?
A: inactive: 0.524

Q: `O=C(Nc1ccc(OC(F)(F)F)cc1)c1sccc1NCc1ccnc2ccccc12` + C=CCn1c(=O)c2cnc(Nc3ccc(N4CCN(C)CC4)cc3)nc2n1-c1cccc(C(C)(C)O)n1 [MK1775] was tested. Which “Z' of S-phase gammaH2AX difference (Z-score)” value did it give?
A: inactive: -0.157

Q: `CC(=O)c1ccc(S(=O)(=O)NC(=O)NC2CCCCC2)cc1` [Acetohexamide] + C=CCn1c(=O)c2cnc(Nc3ccc(N4CCN(C)CC4)cc3)nc2n1-c1cccc(C(C)(C)O)n1 [MK1775] was tested. Which “Z' of S-phase gammaH2AX difference (Z-score)” value did it give?
A: inactive: 0.0267

Q: `CCSC(=N)N` [S-Ethylisothiourea hydrobromide] + C=CCn1c(=O)c2cnc(Nc3ccc(N4CCN(C)CC4)cc3)nc2n1-c1cccc(C(C)(C)O)n1 [MK1775] was tested. Which “Z' of S-phase gammaH2AX difference (Z-score)” value did it give?
A: inactive: 0.59

Q: Which “Z' of S-phase gammaH2AX difference (Z-score)” value does the source give for `CCC(=O)N1CCN(C(=O)c2ccccc2)CC1` + C=CCn1c(=O)c2cnc(Nc3ccc(N4CCN(C)CC4)cc3)nc2n1-c1cccc(C(C)(C)O)n1 [MK1775] here?
A: inactive: 0.687

Q: `CNC(=O)c1cc2c(cn1)[nH]c1ccccc12` [N-Methyl-beta-carboline-3-carboxamide] + C=CCn1c(=O)c2cnc(Nc3ccc(N4CCN(C)CC4)cc3)nc2n1-c1cccc(C(C)(C)O)n1 [MK1775] was tested. Which “Z' of S-phase gammaH2AX difference (Z-score)” value did it give?
A: inactive: 0.00243

Q: How did the “Z' of S-phase gammaH2AX difference (Z-score)” value turn out when `Cn1c(=O)c2nc[nH]c2n(C)c1=O` [Theophylline] + C=CCn1c(=O)c2cnc(Nc3ccc(N4CCN(C)CC4)cc3)nc2n1-c1cccc(C(C)(C)O)n1 [MK1775] was run?
A: inactive: 0.211

Q: Which “Z' of S-phase gammaH2AX difference (Z-score)” value does the source give for `c1ccc(C2CN3CCSC3=N2)cc1` (stereo unspecified) [Tetramisole hydrochloride] + C=CCn1c(=O)c2cnc(Nc3ccc(N4CCN(C)CC4)cc3)nc2n1-c1cccc(C(C)(C)O)n1 [MK1775] here?
A: inactive: -1.9
